This is an account of results in PubChem BioAssay AID272 (DTP/NCI, 2004).

In the test the test system is Lewis lung carcinoma i.m., BDF1 mice, T/C %. Kind of test: NCI In Vivo Anticancer Drug Screen. Data for tumor model Lewis Lung Carcinoma (intramuscular) in B6D2F1 (BDF1) mice. In a few lines: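 Tumour-bearing mice were dosed with compound, and either their survival or their tumour size was measured. Results were expressed relative to vehicle-treated controls as T/C.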

The structures appear in SMILES notation. The list does not hold the whole screen: it gathers tests that were run many times, whatever their T/C, doses with no T/C, and many T/C values between a quarter and a half above the control. Other doses and runs of a compound stand elsewhere. T/C gives the treated animals as a percentage of the vehicle group. Schedule codes are those of the source, taken here to give the interval after Q, in days (D) or hours (H), and the number of doses after X. Some T/C values are followed by the survivors on the day toxicity was checked, most often the fifth; where none is given, no animal had died by that day. Some doses have a count of surviving animals in place of a T/C: the source files T/C as zero there, which appears to mark a toxic dose or a test without result, not a measured value. Some survivor counts are full or nearly so, which does not show that the dose was tolerated: survival well below the control is almost never listed, so the zero probably covers shortened survival too. Survivors were counted at the toxicity check, usually on the fifth day, unless a day is given; later deaths do not show. Some entries were tested several times; the values are given in rising order. Brackets with × give the number of equal values in this list. For survival time, this PubChem deposit counts one and a half times the control or more as active, and values a quarter to a half above the control carry no call in these data; other NCI protocols may use other cut-offs.

For `CN(Cc1cnc2nc(N)nc(N)c2n1)c1ccc(C(=O)N[C@@H](CCC(=O)O)C(=O)O)cc1`, the T/C runs as follows: (T/C endpoint: mean tumor weight, dose: 0.62 mg/kg/injection, schedule: Q01DX011 (ip), vehicle: other, evaluated on day 12, higher T/C = larger tumour) 148 % of control; (T/C endpoint: mean tumor weight, dose: 1.25 mg/kg/injection, schedule: Q01DX011 (ip), vehicle: other, evaluated on day 12, higher T/C = larger tumour) 135 % of control [6 of 8 alive]; (T/C endpoint: median survival time, dose: 0.12 mg/kg/injection, schedule: Q01DX011 (ip), vehicle: sodium bicarbonate, higher T/C = longer survival) 131 % of control; (T/C endpoint: median survival time, dose: 0.31 mg/kg/injection, schedule: Q01DX011 (ip), vehicle: other, evaluated on day 39, higher T/C = longer survival) 110 % of control [7 of 8 alive]; (T/C endpoint: median survival time, dose: 0.31 mg/kg/injection, schedule: Q01DX011 (ip), vehicle: other, evaluated on day 40, higher T/C = longer survival) 115 % of control [7 of 8 alive]; (T/C endpoint: median survival time, dose: 0.31 mg/kg/injection, schedule: Q01DX011 (ip), vehicle: other, evaluated on day 49, higher T/C = longer survival) 98 % of control. Moreover, the T/C by setting is: (T/C endpoint: median survival time, dose: 0.31 mg/kg/injection, schedule: Q01DX011 (ip), vehicle: other, evaluated on day 50, higher T/C = longer survival) 110 % of control; (T/C endpoint: median survival time, dose: 0.62 mg/kg/injection, schedule: Q01DX011 (ip), vehicle: other, evaluated on day 39, higher T/C = longer survival) 104 % of control [7 of 8 alive]; (T/C endpoint: median survival time, dose: 0.62 mg/kg/injection, schedule: Q01DX011 (ip), vehicle: other, evaluated on day 40, higher T/C = longer survival) 117 % of control; (T/C endpoint: median survival time, dose: 0.62 mg/kg/injection, schedule: Q01DX011 (ip), vehicle: other, evaluated on day 49, higher T/C = longer survival) 115 % of control; (T/C endpoint: median survival time, dose: 0.62 mg/kg/injection, schedule: Q01DX011 (ip), vehicle: other, evaluated on day 50, higher T/C = longer survival) 108 % of control; (T/C endpoint: median survival time, dose: 0.65 mg/kg/injection, schedule: Q01DX009 (ip), vehicle: sodium bicarbonate, evaluated on day 10, higher T/C = longer survival) 89 % of control. For the same compound, the T/C (T/C endpoint: median survival time, dose: 0.65 mg/kg/injection, schedule: Q01DX009 (ip), vehicle: sodium bicarbonate, evaluated on day 12, higher T/C = longer survival) is 88 % of control; the T/C (T/C endpoint: median survival time, dose: 0.65 mg/kg/injection, schedule: Q01DX009 (ip), vehicle: sodium bicarbonate, evaluated on day 41, higher T/C = longer survival) was 90 % of control; the T/C (T/C endpoint: median survival time, dose: 0.65 mg/kg/injection, schedule: Q01DX009 (ip), vehicle: sodium bicarbonate, evaluated on day 45, higher T/C = longer survival) was 90 % of control; the T/C (T/C endpoint: median survival time, dose: 1.08 mg/kg/injection, schedule: Q01DX009 (ip), vehicle: sodium bicarbonate, evaluated on day 10, higher T/C = longer survival) was 98 % of control; the T/C (T/C endpoint: median survival time, dose: 1.08 mg/kg/injection, schedule: Q01DX009 (ip), vehicle: sodium bicarbonate, evaluated on day 12, higher T/C = longer survival) is 92 % of control; the T/C (T/C endpoint: median survival time, dose: 1.08 mg/kg/injection, schedule: Q01DX009 (ip), vehicle: sodium bicarbonate, evaluated on day 41, higher T/C = longer survival) was 95 % of control. The T/C is 92 % of control [7 of 8 alive] (T/C endpoint: median survival time, dose: 1.08 mg/kg/injection, schedule: Q01DX009 (ip), vehicle: sodium bicarbonate, evaluated on day 45, higher T/C = longer survival); 133 % of control [6 of 8 alive] (T/C endpoint: median survival time, dose: 1.25 mg/kg/injection, schedule: Q01DX011 (ip), vehicle: other, evaluated on day 40, higher T/C = longer survival); 98 % of control [7 of 8 alive] (T/C endpoint: median survival time, dose: 1.25 mg/kg/injection, schedule: Q01DX011 (ip), vehicle: other, evaluated on day 49, higher T/C = longer survival); 92 % of control (T/C endpoint: median survival time, dose: 1.25 mg/kg/injection, schedule: Q01DX011 (ip), vehicle: other, evaluated on day 50, higher T/C = longer survival); 50 % of control (T/C endpoint: median survival time, dose: 1.8 mg/kg/injection, schedule: Q01DX009 (ip), vehicle: sodium bicarbonate, evaluated on day 10, higher T/C = longer survival); 65 % of control (T/C endpoint: median survival time, dose: 1.8 mg/kg/injection, schedule: Q01DX009 (ip), vehicle: sodium bicarbonate, evaluated on day 12, higher T/C = longer survival). For the same compound, the survivor count (T/C endpoint: mean tumor weight, dose: 2.5 mg/kg/injection, schedule: Q01DX011 (ip), vehicle: other, higher T/C = larger tumour) is 1 of 8 and 5 of 8; the survivor count (T/C endpoint: median survival time, dose: 0.39 mg/kg/injection, schedule: Q01DX009 (ip), vehicle: sodium bicarbonate, higher T/C = longer survival) was 0 of 8; the survivor count (T/C endpoint: median survival time, dose: 1.0 mg/kg/injection, schedule: Q01DX011 (ip), vehicle: sodium bicarbonate, higher T/C = longer survival) is reported as 9 of 10; the survivor count (T/C endpoint: median survival time, dose: 1.25 mg/kg/injection, schedule: Q01DX011 (ip), vehicle: other, higher T/C = longer survival) is given as 6 of 8; the survivor count (T/C endpoint: median survival time, dose: 1.8 mg/kg/injection, schedule: Q01DX009 (ip), vehicle: sodium bicarbonate, higher T/C = longer survival) is 6 of 8 and 7 of 8; the survivor count (T/C endpoint: median survival time, dose: 2.0 mg/kg/injection, schedule: Q01DX011 (ip), vehicle: sodium bicarbonate, higher T/C = longer survival) is 10 of 10. The survivor count runs as follows: (T/C endpoint: median survival time, dose: 2.5 mg/kg/injection, schedule: Q01DX011 (ip), vehicle: other, higher T/C = longer survival) 1 of 8, 5 of 8, 6 of 8 (2×); (T/C endpoint: median survival time, dose: 3.0 mg/kg/injection, schedule: Q01DX009 (ip), vehicle: sodium bicarbonate, higher T/C = longer survival) 0 of 8; (T/C endpoint: median survival time, dose: 4.0 mg/kg/injection, schedule: Q01DX011 (ip), vehicle: sodium bicarbonate, higher T/C = longer survival) 4 of 10 and 9 of 10; (T/C endpoint: median survival time, dose: 5.0 mg/kg/injection, schedule: Q01DX011 (ip), vehicle: other, higher T/C = longer survival) 0 of 8 (3×).

With `S=c1nc[nH]c2nc[nH]c12`, the survivor count was 3 of 8 (T/C endpoint: mean tumor weight, dose: 65.0 mg/kg/injection, schedule: Q01DX011 (ip), vehicle: other, higher T/C = larger tumour); 3 of 8 and 5 of 8 (T/C endpoint: mean tumor weight, dose: 108.0 mg/kg/injection, schedule: Q01DX011 (ip), vehicle: other, higher T/C = larger tumour); 10 of 10 (T/C endpoint: median survival time, dose: 32.0 mg/kg/injection, schedule: Q01DX011 (ip), vehicle: other, higher T/C = longer survival); 6 of 8, 7 of 8, 8 of 8 (T/C endpoint: median survival time, dose: 39.0 mg/kg/injection, schedule: Q01DX011 (ip), vehicle: other, higher T/C = longer survival); 7 of 8 (T/C endpoint: median survival time, dose: 40.0 mg/kg/injection, schedule: Q01DX011 (ip), vehicle: other, higher T/C = longer survival); 5 of 10 and 7 of 10 (T/C endpoint: median survival time, dose: 64.0 mg/kg/injection, schedule: Q01DX011 (ip), vehicle: other, higher T/C = longer survival). Moreover, the survivor count is, setting by setting: (T/C endpoint: median survival time, dose: 65.0 mg/kg/injection, schedule: Q01DX011 (ip), vehicle: other, higher T/C = longer survival) 1 of 8, 3 of 8, 7 of 8; (T/C endpoint: median survival time, dose: 80.0 mg/kg/injection, schedule: Q01DX011 (ip), vehicle: other, higher T/C = longer survival) 0 of 8; (T/C endpoint: median survival time, dose: 108.0 mg/kg/injection, schedule: Q01DX011 (ip), vehicle: other, higher T/C = longer survival) 0 of 8, 3 of 8, 5 of 8; (T/C endpoint: median survival time, dose: 180.0 mg/kg/injection, schedule: Q01DX011 (ip), vehicle: other, higher T/C = longer survival) 0 of 8 (3×). Moreover, the T/C (T/C endpoint: median survival time, dose: 16.0 mg/kg/injection, schedule: Q01DX011 (ip), vehicle: other, higher T/C = longer survival) is 125 % of control.

In the case of `COc1cc([C@@H]2c3cc4c(cc3C[C@H]3COC(=O)[C@@H]32)OCO4)cc(OC)c1OC`, the survivor count runs as follows: (T/C endpoint: mean tumor weight (est.), dose: 20.0 mg/kg/injection, schedule: Q01DX011 (ip), vehicle: saline, higher T/C = larger tumour) 5 of 8; (T/C endpoint: mean tumor weight, dose: 25.0 mg/kg/injection, schedule: Q01DX011 (ip), vehicle: saline, higher T/C = larger tumour) 1 of 8; (T/C endpoint: median survival time, dose: 25.0 mg/kg/injection, schedule: Q01DX011 (ip), vehicle: saline, higher T/C = longer survival) 1 of 8; (T/C endpoint: median survival time, dose: 50.0 mg/kg/injection, schedule: Q01DX011 (ip), vehicle: saline, higher T/C = longer survival) 0 of 8.

In the case of `O=C1CCCN1.O=C1CCCN1.[Br][Co][Br]`, the survivor count was 0 of 8 (T/C endpoint: median survival time, dose: 150.0 mg/kg/injection, schedule: Q01DX011 (ip), vehicle: water, higher T/C = longer survival) and 0 of 8 (T/C endpoint: median survival time, dose: 300.0 mg/kg/injection, schedule: Q01DX011 (ip), vehicle: water, higher T/C = longer survival).

`CN(N=O)C(N)=O`: the survivor count is given as 8 of 8 (T/C endpoint: median survival time, dose: 25.0 mg/kg/injection, schedule: Q01DX015 (ip), vehicle: saline, higher T/C = longer survival); 8 of 8 (T/C endpoint: median survival time, dose: 50.0 mg/kg/injection, schedule: Q01DX015 (ip), vehicle: saline, higher T/C = longer survival); 8 of 8 (T/C endpoint: median survival time, dose: 50.0 mg/kg/injection, schedule: Q07DX003 (ip), vehicle: saline, higher T/C = longer survival); 8 of 8 (T/C endpoint: median survival time, dose: 100.0 mg/kg/injection, schedule: Q07DX003 (ip), vehicle: saline, higher T/C = longer survival); 8 of 8 (T/C endpoint: median survival time, dose: 200.0 mg/kg/injection, schedule: Q07DX003 (ip), vehicle: saline, higher T/C = longer survival).

For the compound `N#Cc1c(F)c(F)c(C#N)c(F)c1F`, the survivor count runs as follows: (T/C endpoint: median survival time, dose: 2.5 mg/kg/injection, schedule: Q01DX011 (ip), vehicle: saline with Tween-80, higher T/C = longer survival) 8 of 8; (T/C endpoint: median survival time, dose: 5.0 mg/kg/injection, schedule: Q01DX011 (ip), vehicle: saline with Tween-80, higher T/C = longer survival) 8 of 8.

For `CN1C=c2c3c(ccc2=C2C=CC4C=C5OCOC5=CC4=C21)OCO3` (stereo unspecified), the survivor count is recorded as 0 of 8 (T/C endpoint: median survival time, dose: 30.0 mg/kg/injection, schedule: Q01DX011 (ip), vehicle: saline with Tween-80, higher T/C = longer survival) and 0 of 8 (T/C endpoint: median survival time, dose: 60.0 mg/kg/injection, schedule: Q01DX011 (ip), vehicle: saline with Tween-80, higher T/C = longer survival).

As to `CNC(=S)N/N=C/C(C)=N/NC(=S)NC`, the survivor count (T/C endpoint: median survival time, dose: 0.1 micrograms/kg/injection, schedule: Q01DX011 (ip), vehicle: saline with Tween-80, higher T/C = longer survival) is 1 of 8.
